In US7994276B2, “Composition of tumour-associated peptides and related anti-cancer vaccine” (Immatics Biotechnologies GmbH, priority 2007, dated 2011):
Not every detail of the peptide structures is certain; ends, links or a residue may be inferred. Where no end group is shown, it is not given here.

Key:
[1] = tested on: CD8+ T cells of healthy donors; assay: Priming of CD8+ cells with low-density pMHC beads (high-avidity CTL), tetramer staining and FACS sorting; format: cell-based, human; settings: high-avidity CD8+ T cell precursors
[2] = tested on: CD8+ NOX-001 tetramer+ T-cell line; assay: IFNγ ELISPOT of sorted T-cell lines after restimulation with peptide; format: cell-based, human; settings: one T-cell line

Sequence | Immunogenicity in vitro by priming with low pMHC density aAPCs [1] | Functionality of T-cell line, IFNγ expression after restimulation [2]
ILAPVILYI [NOX-001] | immunogenic in vitro | proved to be functional by ELISPOT
ALFVRLLALA [TGFBI-001] | immunogenic in vitro | –
